Patent US10130710B2 (priority 2014, dated 2018)
Counter-ions that a name gives are not always drawn.

Assay type: physicochemical
Excerpt: Incidentally, the octanol-water partition coefficient herein is obtained by adding a target component to be measured into a flask charged with n-octanol and an aqueous buffer of pH 7 or water, shaking the resultant, and performing calculation, in accordance with the following equation, based on active ingredient concentrations in respective phases. Octanol-water partition coefficient=Log10(concentration in octanol phase/concentration in aqueous phase)

Molecule `COc1cc2c(cc1OC)C(=O)C(CC1CCN(Cc3ccccc3)CC1)C2` (stereo not shown) [donepezil hydrochloride, reference compound] has a water-octanol partition coefficient of 4.3.
